These are yes or no findings as the source states them, for the method shown. Some results given as binding are weak or reduced against the parent protein; the word gives no strength.
Tests used:
[1] = biological target: MED1 intrinsically disordered region, amino acids 600-1581, recombinant fluorescent fusion protein (human) (UniProt Q15648); assay: in vitro droplet assay, ER partitioning into MED1 droplets
[2] = biological target: MED1 intrinsically disordered region, amino acids 600-1581, recombinant fluorescent fusion protein (human) (UniProt Q15648); assay: in vitro droplet assay with estrogen (co-condensation)
[3] = biological target: MED1 intrinsically disordered region, amino acids 600-1581, recombinant fluorescent fusion protein (human) (UniProt Q15648); assay: in vitro droplet assay, confocal microscopy
[4] = biological target: MED1 intrinsically disordered region, amino acids 600-1581, recombinant fluorescent fusion protein (human) (UniProt Q15648); assay: in vitro droplet assay, 10 µM each protein, 100 µM estrogen
[5] = biological target: MED1 intrinsically disordered region, amino acids 600-1581, recombinant fluorescent fusion protein (human) (UniProt Q15648); assay: in vitro droplet assay, target protein partitioning into the MED1 condensate
[6] = biological target: HP1α, full length, amino acids 1-191, recombinant fluorescent fusion protein (human) (UniProt P45973); assay: in vitro droplet assay, ER and HP1α at 10 µM

Amino acid sequences for entries named in this document (tags omitted). A change or cut given only in a name is not applied to a line headed by its entry.
UniProt Q15648: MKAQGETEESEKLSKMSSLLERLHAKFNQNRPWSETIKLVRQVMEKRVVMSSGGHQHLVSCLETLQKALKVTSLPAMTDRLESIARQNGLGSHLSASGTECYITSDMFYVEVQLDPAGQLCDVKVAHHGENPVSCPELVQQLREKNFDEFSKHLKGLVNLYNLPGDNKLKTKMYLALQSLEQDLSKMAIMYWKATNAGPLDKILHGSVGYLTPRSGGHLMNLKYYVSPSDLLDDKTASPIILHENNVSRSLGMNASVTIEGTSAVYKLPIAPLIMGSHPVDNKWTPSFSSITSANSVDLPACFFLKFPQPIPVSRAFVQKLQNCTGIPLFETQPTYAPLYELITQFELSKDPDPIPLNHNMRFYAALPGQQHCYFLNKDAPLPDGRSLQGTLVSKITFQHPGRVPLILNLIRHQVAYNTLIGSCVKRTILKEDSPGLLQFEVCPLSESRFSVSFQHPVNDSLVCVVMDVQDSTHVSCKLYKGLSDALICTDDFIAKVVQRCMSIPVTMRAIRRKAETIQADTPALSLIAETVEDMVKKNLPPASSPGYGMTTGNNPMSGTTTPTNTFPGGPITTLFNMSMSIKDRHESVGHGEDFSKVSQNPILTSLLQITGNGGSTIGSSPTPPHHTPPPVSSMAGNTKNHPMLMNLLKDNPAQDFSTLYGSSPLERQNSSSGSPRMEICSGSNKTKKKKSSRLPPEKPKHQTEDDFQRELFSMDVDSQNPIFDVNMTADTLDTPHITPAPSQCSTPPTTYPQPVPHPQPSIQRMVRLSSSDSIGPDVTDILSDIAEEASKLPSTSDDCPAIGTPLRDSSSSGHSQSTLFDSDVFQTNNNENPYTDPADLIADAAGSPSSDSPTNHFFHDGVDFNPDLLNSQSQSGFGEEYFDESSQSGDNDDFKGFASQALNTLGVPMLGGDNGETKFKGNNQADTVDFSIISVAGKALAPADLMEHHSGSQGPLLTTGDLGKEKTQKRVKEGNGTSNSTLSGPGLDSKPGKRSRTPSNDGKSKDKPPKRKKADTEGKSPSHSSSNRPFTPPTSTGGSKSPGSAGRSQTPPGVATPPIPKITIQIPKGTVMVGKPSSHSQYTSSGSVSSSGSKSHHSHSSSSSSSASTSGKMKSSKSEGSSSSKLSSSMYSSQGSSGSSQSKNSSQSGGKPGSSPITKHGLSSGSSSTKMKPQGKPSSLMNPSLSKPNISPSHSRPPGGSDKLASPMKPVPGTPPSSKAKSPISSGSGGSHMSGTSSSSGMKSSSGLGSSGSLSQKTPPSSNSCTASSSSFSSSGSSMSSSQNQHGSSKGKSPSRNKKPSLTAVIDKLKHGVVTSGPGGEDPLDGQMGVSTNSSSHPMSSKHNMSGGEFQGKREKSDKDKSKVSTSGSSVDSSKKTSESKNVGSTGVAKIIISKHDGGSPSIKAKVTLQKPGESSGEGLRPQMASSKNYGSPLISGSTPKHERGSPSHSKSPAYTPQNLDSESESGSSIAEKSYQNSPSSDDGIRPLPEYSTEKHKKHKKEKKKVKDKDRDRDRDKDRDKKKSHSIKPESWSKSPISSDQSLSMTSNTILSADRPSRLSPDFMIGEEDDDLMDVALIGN
UniProt P45973: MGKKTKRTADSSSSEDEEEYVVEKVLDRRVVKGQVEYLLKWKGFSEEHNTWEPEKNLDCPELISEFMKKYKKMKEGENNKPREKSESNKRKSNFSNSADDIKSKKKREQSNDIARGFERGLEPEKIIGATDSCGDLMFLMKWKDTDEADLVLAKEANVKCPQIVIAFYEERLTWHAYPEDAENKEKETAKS
UniProt P03372: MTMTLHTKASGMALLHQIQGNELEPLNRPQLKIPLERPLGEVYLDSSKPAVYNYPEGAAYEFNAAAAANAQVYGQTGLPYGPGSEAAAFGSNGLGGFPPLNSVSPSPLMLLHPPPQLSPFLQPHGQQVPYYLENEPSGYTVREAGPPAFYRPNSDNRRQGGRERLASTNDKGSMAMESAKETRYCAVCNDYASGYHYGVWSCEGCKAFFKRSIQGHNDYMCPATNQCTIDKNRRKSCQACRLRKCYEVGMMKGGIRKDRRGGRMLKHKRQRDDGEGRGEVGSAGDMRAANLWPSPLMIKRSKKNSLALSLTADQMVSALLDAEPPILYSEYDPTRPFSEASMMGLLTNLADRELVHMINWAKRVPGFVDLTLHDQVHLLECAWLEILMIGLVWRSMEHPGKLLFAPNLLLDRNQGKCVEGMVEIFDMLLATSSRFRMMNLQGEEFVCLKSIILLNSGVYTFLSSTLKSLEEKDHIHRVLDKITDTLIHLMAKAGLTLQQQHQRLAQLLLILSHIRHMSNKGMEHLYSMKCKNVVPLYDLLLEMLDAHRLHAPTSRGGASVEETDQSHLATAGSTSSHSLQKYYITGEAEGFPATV

Measured: binding

Estrogen receptor (ERα), full length, amino acids 1-595, recombinant fluorescent fusion protein (from UniProt P03372 1-595)
binds: all assays above
